The other results are listed elsewhere or left out. The main result of the screen is listed elsewhere. These columns were measured beside it and carry no call. The list favours compounds with an active or inconclusive main result. The note in brackets gives the kind of curve behind each potency; many fits are weak.
Assay: qHTS Assay for Lipid Storage Modulators in Drosophila S3 Cells;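 on cell number change: cells counted by Cell Tracker Red CMTPX staining in the red channel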
Details: BODIPY lipid droplet fluorescence, 18-24 h; for cell number change: measured here: cell count max response, cells fed with added oleic acid
Procedure, shortened: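 Drosophila S3 cells loaded with oleic acid (400 uM, as added) and compounds at several concentrations; lipid droplets imaged by 488-nm laser-scanning cytometry, 500–530 nm intensity and object ratio to cell channel. Percent activity normalized to 20 uM Triacsin C.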

[1] = measured here: lipid fluorescence (Fed channel) AC50, cells fed with added oleic acid
[2] = measured here: cell number channel AC50, cells fed with added oleic acid

| SMILES | cell number change [%] | AC50 [1] | AC50 [2] |
| --- | --- | --- | --- |
| O=C(Cc1ccccc1)N/N=C/c1ccccc1F | -9.91 | 92 nM [rising, partial curve, poor fit] |  |
| CCC(CC)C(=O)Nc1ccc(Sc2ccc([N+](=O)[O-])cc2)cc1 |  | 7310 nM [falling, single point] |  |
| Cc1cccc(C2=N/C(=C\c3cccs3)C(=O)O2)c1 | 22.8 | 2590 nM [rising, single point] | 231 nM [rising, single point] |
| Cn1ncc(C#N)c1NC(=O)c1nn2cccnc2c1Cl | -35.3 | 10300 nM [falling, single point] | 146 nM [falling, full curve] |
| O=C1c2oc3ccc(F)cc3c(=O)c2C(c2ccncc2)N1CCN1CCOCC1 (stereo unspecified) | -68.4 |  | 461 nM [falling, partial curve] |
| CCOc1ccc(CCNC(=O)c2cccc(NC3=NC4CS(=O)(=O)CC4S3)c2)cc1OCC (stereo unspecified) | -2.62 |  |  |
| CCc1ccc(NC(=O)C(=O)NCCN2CCN(Cc3ccc([N+](=O)[O-])cc3)CC2)cc1 | -7.86 |  | 2060 nM [falling, partial curve, poor fit] |
| CCCOC(=O)C1=C(C)NC(=O)NC1c1cccc2ccccc12 (stereo unspecified) | 42.9 |  | 29100 nM [rising, single point] |
| C=CCn1c(O)c(N=NC(=S)Nc2ccccc2C)c2cc(S(=O)(=O)N3CCOCC3)ccc21 | 31.1 |  | 411 nM [rising, full curve, poor fit] |
| O=C(c1ccco1)N1CCN(Cc2nc(Cc3ccccc3)no2)CC1 | 31.7 |  | 130 nM [rising, full curve, poor fit] |
| COc1cccc(-c2nc(Cc3ccc(OC)c(OC)c3)no2)c1 | -5.58 |  |  |
| COCC(C)NC(=O)C(C)Oc1ccccc1 (stereo unspecified) | -66.7 |  | 29100 nM [falling, single point] |
| COc1ccc(NS(=O)(=O)c2cccc(C(=O)NNC(=O)c3cc(C)oc3C)c2)cc1 | -9.66 | 146 nM [falling, full curve, poor fit] |  |
| O=C(COc1ccc2c(-c3ccccc3)cc(=O)oc2c1)NCc1ccccn1 | -19.8 | 29100 nM [falling, single point] |  |
| COCCCNC(=O)c1cccc(NC(=O)c2ccccc2)c1 | -24.7 | 580 nM [rising, single point] |  |
| O=C(CN1C(=O)C(=O)N(C2CCCC2)C1=O)Nc1ccc([N+](=O)[O-])cc1 | -16.5 |  |  |
| C/C(CC(=O)Nc1ccc(C)c(Cl)c1)=N\NC(=O)c1cccc(O)c1 | -42.3 | 1030 nM [rising, full curve] | 18400 nM [falling, partial curve] |
| COc1ccc(N2CCN(C(=O)Cn3nnc(-c4ccc(N(C)C)cc4)n3)CC2)cc1 | 7.75 | 6510 nM [falling, partial curve, poor fit] | 164 nM [falling, full curve, poor fit] |
| COc1cccc(CNC(=O)CCS(=O)(=O)c2ccccc2Cl)c1 | -43.9 | 25900 nM [falling, partial curve, poor fit] |  |
| Cc1ccccc1NC(=O)C1CCC(=O)N1 (stereo unspecified) | 4.99 | 651 nM [falling, partial curve, poor fit] |  |

Single records, as listed above.
COCC(C)NC(=O)C(C)Oc1ccccc1 (stereo unspecified) is entered as cell number change [%]: -66.7; AC50 [2]: 29100 nM [falling, single point]
CCOc1ccc(CCNC(=O)c2cccc(NC3=NC4CS(=O)(=O)CC4S3)c2)cc1OCC (stereo unspecified) is entered as cell number change [%]: -2.62
Cc1cccc(C2=N/C(=C\c3cccs3)C(=O)O2)c1 is entered as cell number change [%]: 22.8; AC50 [1]: 2590 nM [rising, single point]; AC50 [2]: 231 nM [rising, single point]
CCCOC(=O)C1=C(C)NC(=O)NC1c1cccc2ccccc12 (stereo unspecified) is entered as cell number change [%]: 42.9; AC50 [2]: 29100 nM [rising, single point]

Additional entries follow:

| SMILES | cell number change [%] | AC50 [1] | AC50 [2] |
| --- | --- | --- | --- |
| Cc1c(OCC(=O)NC(Cc2ccc(Cl)cc2)C(=O)O)ccc2c1oc(=O)c1ccccc12 (stereo unspecified) |  | 6510 nM [falling, single point] |  |
| N#Cc1nc(COc2ccccc2)oc1N1CCCC1 | -21.4 | 23100 nM [rising, single point] |  |
| COc1ccc2c(c1)CCCC21SC(NC(C)=O)=NN1C(C)=O (stereo unspecified) | -25 |  | 4110 nM [falling, full curve, poor fit] |
| COC(=O)CN(c1ccc(OC)cc1)S(=O)(=O)c1ccc(OC)c(OC)c1 |  |  | 3660 nM [rising, single point] |
| CSCCC(NS(=O)(=O)c1ccccc1F)C(=O)NCCCn1nc(C)cc1C (stereo unspecified) | 1.33 | 5.8 nM [falling, full curve, poor fit] |  |
| CCC(=O)N/N=C(\C)CC(=O)Nc1ccc2c(c1)OCCO2 | 9.18 | 580 nM [rising, single point] |  |
| Cc1ccc(S(=O)(=O)CC(O)COc2ccc(F)cc2Cl)cc1 (stereo unspecified) | 1.47 |  | 731 nM [falling, single point] |
| C/C(N)=C(/C#N)C(=O)CSc1cc(C)c2cc(C)cc(C)c2n1 | -4.04 | 411 nM [falling, full curve] | 411 nM [falling, partial curve, poor fit] |
| CSc1nnc(NC(=O)C2CCCCC2)s1 | 11.2 | 23.1 nM [falling, full curve, poor fit] |  |
| CCCN(CC(=O)Nc1ccccc1C)C(=O)/C=C/c1ccc(OCC)c(OC)c1 | -2.2 | 146 nM [rising, full curve, poor fit] |  |
| O=C1CSc2ccc(C(=O)N3CCN(c4ccccn4)CC3)cc2N1 | 4.83 | 2310 nM [rising, partial curve, poor fit] | 1300 nM [rising, partial curve] |
| CC(=O)C1=C(c2ccccc2)NC(=O)NC1c1ccc(O)c(Cl)c1 (stereo unspecified) | -3.16 | 3260 nM [rising, full curve] |  |
| C/C(=N\NC(=O)CSc1nc2ccccc2s1)c1ccco1 |  |  | 2310 nM [rising, single point] |
| Cc1occc1C(=O)Nc1c(Cl)cccc1Cl | 17.8 |  | 731 nM [rising, single point] |
| COc1ccc(CCC(=O)NC(C)C)cc1 | 61 | 29100 nM [rising, single point] | 29100 nM [rising, single point] |
| Cc1onc(-c2ccccc2)c1C(=O)OCC(=O)Nc1ccc(OC(F)(F)F)cc1 | -6.2 | 259 nM [falling, full curve, poor fit] |  |
| Cc1ccc(NC(=O)Nc2nnc(Cc3ccc([N+](=O)[O-])cc3)s2)cc1 | -4.34 | 5170 nM [rising, full curve, poor fit] |  |
| CCCOc1cccc(C2/C(=C(/O)c3ccc4c(c3)CC(C)O4)C(=O)C(=O)N2CCN2CCOCC2)c1 (stereo unspecified) | 23.9 | 731 nM [rising, full curve] |  |
| COc1ccc(CC(=O)O/N=C(\N)c2ccc(OC)cc2)cc1 | 25.9 | 651 nM [rising, single point] |  |
| Cn1c2ccccc2c(=O)c2c(=O)n(Cc3ccco3)c(-c3ccc(C(C)(C)C)cc3)nc21 | -8.56 | 25900 nM [falling, partial curve, poor fit] | 6510 nM [falling, single point] |

| SMILES | cell number change [%] | AC50 [1] | AC50 [2] |
| --- | --- | --- | --- |
| CN(CC(=O)NCc1ccccc1Cl)CC(=O)Nc1ccccc1Br | 16.7 | 146 nM [rising, full curve] |  |
| O=C(NCCN=C1NS(=O)(=O)c2ccccc21)c1ccc(S(=O)(=O)N2CCOCC2)cc1 | 6.56 | 3260 nM [falling, partial curve] |  |
| CCOC(=O)c1cccc(NC(=O)C2CCCN(c3nnc(N4CCCC4=O)s3)C2)c1 (stereo unspecified) | 10.7 |  |  |
| COc1ccc(NC(=O)CSc2nnc(-c3ccccn3)n2N)cc1 | 67.8 | 146 nM [falling, full curve, poor fit] | 29100 nM [rising, single point] |
| CC(C)C(C)(C#N)NC(=O)CSc1nncn1-c1ccccc1 (stereo unspecified) | 93.7 |  | 16400 nM [rising, single point] |
| CCOc1ccc(CN2CCN(c3ncnc4scc(-c5ccccc5)c34)CC2)cc1 | 41.5 |  | 8200 nM [rising, partial curve, poor fit] |
| COc1ccc(-c2cc(C(=O)N(C)CC(=O)Nc3ccccc3Br)c3ccccc3n2)cc1OC | -2.64 | 18400 nM [rising, single point] |  |
| Fc1cccc(CNC2CCN(CCc3ccccc3)CC2)c1 | -0.379 | 103 nM [rising, full curve, poor fit] |  |
| O=C1c2ccc(Oc3cccc([N+](=O)[O-])c3)cc2C(=O)N1c1ccccn1 | 2.27 | 6510 nM [falling, single point] | 92 nM [falling, full curve, poor fit] |
| CC(=O)Nc1ccc(NC(=O)CSc2ccc(C)cc2)cc1 | -13.3 |  |  |
| COc1cccc(N=C2CC(C)(C)CC(=O)/C2=C(/O)c2ccccc2)c1 | 2.65 |  |  |
| COCCn1nnnc1C(c1ccc(Cl)cc1)N1CCN(C(=O)c2ccco2)CC1 (stereo unspecified) | 14.4 |  |  |
| CC(=O)c1cccc(NC(=O)C2CCN(C(=O)c3ccc([N+](=O)[O-])cc3)CC2)c1 | -23.4 | 6510 nM [falling, single point] |  |
| Cc1ccc(C(=O)/C=C/Nc2ccc(S(=O)(=O)Nc3cc(C)nc(C)n3)cc2)cc1 | 17.7 | 1460 nM [rising, partial curve] |  |
| O=C(Nc1cccc(S(=O)(=O)N2CCCCC2)c1)C1CCN(C(=O)c2ccc(Cl)cc2)CC1 | -8.4 |  | 1300 nM [rising, single point] |
| O=C1/C(=C/c2ccc(Br)cc2)Oc2cc(O)ccc21 | -0.118 |  |  |
| CN(CC/C=C1/c2ccccc2CSc2ccccc21)CCCO | -8.68 | 29100 nM [rising, partial curve] |  |
| CCN(CC)C(=O)CCS(=O)(=O)c1cccc2nonc12 | 0.988 | 18400 nM [falling, partial curve] |  |
| Cc1c(C(=O)NCc2ccccc2)oc2ccc(S(=O)(=O)N3CCCC3)cc12 | -33.1 |  | 8200 nM [falling, partial curve] |
